Data published in article PMC5608341, “The human VGF-derived bioactive peptide TLQP-21 binds heat shock 71 kDa protein 8 (HSPA8)on the surface of SH-SY5Y cells” (PLoS ONE, 2017).

Tested on: Stress-70 protein (HSPA9/mortalin)
Assay: Avidin-agarose affinity chromatography with biotin-TLQP-21, MASCOT MS/MS identification; HSPA9
Format: binding, human
Details: TLQP-21 as bait

Q: How did the MASCOT score (~70kDa band after affinity chromatography of SH-SY5Y cell homogenates) turn out when “Biotin-TLQPPSALRRRHYHHALPPSRC [biotin-TLQP-21, amino-terminally biotinylated human TLQP-21 containing an extra cysteine residue at the C-terminus]” was run?
A: 431

Q: And the Sequence coverage (~70kDa band)?
A: 12.5

Where no end group is shown, it is not given here. The star is where a group is joined. Biotin = O=C1N[C@H]2[C@H](CS[C@H]2CCCCC(=O)*)N1
